{
  "source": "patent US20250115590A1",
  "about": "“MATRIX METALLOPROTEINASE (MMP) INHIBITORS AND METHODS OF USE THEREOF” (Foresee Pharmaceuticals USA, Inc., priority 2018, published 2025)",
  "test_system": "SD rat kidney fibrosis model by unilateral ureteral occlusion (UUO)",
  "experiment": "Efficacy study on SD rat kidney fibrosis model by unilateral ureteral occlusion (UUO)",
  "format": "in vivo, Sprague Dawley (SD) rats",
  "key": {"[1]": {"settings": "20 mg/kg/day (p<0.05), oral bid 14 days"}},
  "note": "Entries after “also recorded” stand apart in the source; their conditions may differ. At least one compound was matched to its structure with a doubt left.",
  "data": [
    {"smiles": "Cc1cc(COc2ccc(Sc3ccncc3C3NC(=O)NC3=O)cc2)ccn1", "note": "(stereo not drawn) [PC-16]", "values": [
      {"measurement": "collagen-IV deposition in cortex area of left kidney (IHC)", "setting": "6 mg/kg/day (P<0.05), oral bid 14 days", "value": "significant reduction in collagen-IV deposition"},
      {"measurement": "interstitial fibrosis score in cortex (Masson Trichrome)", "setting": "20 mg/kg/day (p<0.001), oral bid 14 days", "value": "significant reduction in the fibrosis score"},
      {"measurement": "collagen-I deposition in cortex area of left kidney (IHC)", "setting": "[1]", "value": "significant reduction in collagen-I deposition"},
      {"measurement": "collagen-IV deposition in cortex area of left kidney (IHC)", "setting": "[1]", "value": "significant reduction in collagen-IV deposition"},
      {"measurement": "serum blood urea nitrogen (BUN) elevation", "setting": "20 mg/kg/day oral bid 14 days, day-15, vs vehicle/model group", "value": "did slightly limit the blood urea nitrogen (BUN) elevation; also recorded: did not show a statistically significant difference"},
      {"measurement": "left kidney tubular damage, comparison of doses", "setting": "20 mg/kg/day vs 2 mg/kg/day (p<0.01)", "value": "more effective than a dose of 2 mg/kg/day; also recorded: more effect than a dose of 2 mg/kg/day"},
      {"measurement": "left kidney tubular damage (semi-quantitative score, H&E)", "setting": "2, 6, 20 mg/kg/day oral bid 14 days", "value": "clear dose dependent effect"},
      {"measurement": "interstitial inflammation in cortex (semi-quantitative score)", "setting": "2, 6, 20 mg/kg/day oral bid 14 days, dose dependent", "value": "significant reduction"},
      {"measurement": "interstitial fibrosis score in cortex (Masson Trichrome)", "setting": "all dose groups (2, 6, 20 mg/kg/day), oral bid 14 days", "value": "significant reduction in the fibrosis score"}
    ]}
  ]
}
